Source: PubChem BioAssay AID743121 (NCATS, 2013)
In all, the deposit lists about 26,000 reagents; below is a part drawn at random. In the full data, 167 (0.63%) got an active call. 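Calls are per gene from RSA p-values that are not deposited; an individual active-marked siRNA can sensitise only weakly.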 Reagents against one gene are numbered here.

- Screen: 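Genes whose silencing strengthens cell killing by camptothecin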 (primary screen)
- System: MDA-MB-231 cells, a human breast cancer line
- Reagent: single siRNA against human genes, 20 nM siRNA (0.8 pmol per well)
- Time to read-out: 120 h (drug added 48 h after transfection, read 72 h later)
- Treatment: camptothecin 20 nM (about EC30) for 72 h; vehicle 0.1% DMSO in parallel plates
- Measurement: 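CellTiter-Glo ATP signal, scaled to control siRNA as percent viability; sensitisation given as log2 of untreated divided by camptothecin-treated viability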
- Scale: log2 vehicle/camptothecin viability: higher = stronger sensitisation to camptothecin; viability with camptothecin and viability without drug: higher = more viable cells
- Hit rule: 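Each gene scored by redundant siRNA activity (RSA) over its individual siRNA ratios; a gene is called active at p < 0.001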

Target gene | reagent no. | log2 vehicle/camptothecin viability | viability with camptothecin (% of control) | viability without drug (% of control) | Outcome
ADCY4 (adenylate cyclase 4) | 1 | -0.201 | 57.9 | 50.4 | inactive
ADCY4 (adenylate cyclase 4) | 2 | -0.0416 | 65.7 | 63.8 | inactive
ADCY4 (adenylate cyclase 4) | 3 | -0.0452 | 45.5 | 44.1 | inactive
GUCA1A (guanylate cyclase activator 1A) | 1 | -0.291 | 50 | 40.9 | inactive
GUCA1A (guanylate cyclase activator 1A) | 2 | -0.104 | 87.9 | 81.8 | inactive
GUCA1A (guanylate cyclase activator 1A) | 3 | -0.258 | 33.8 | 28.2 | inactive
GUCA1A (guanylate cyclase activator 1A) | 4 | -0.658 | 86.6 | 54.9 | inactive
MLX (MAX dimerization protein MLX) | 1 | 0.148 | 70.2 | 77.8 | inactive
MLX (MAX dimerization protein MLX) | 2 | -0.303 | 104 | 84.3 | inactive
MLX (MAX dimerization protein MLX) | 3 | -0.129 | 94.1 | 86 | inactive
MLX (MAX dimerization protein MLX) | 4 | -0.432 | 71.8 | 53.2 | inactive
TM2D1 (TM2 domain containing 1) | 1 | -0.33 | 120 | 95.5 | inactive
TM2D1 (TM2 domain containing 1) | 2 | -0.108 | 32 | 29.7 | inactive
TM2D1 (TM2 domain containing 1) | 3 | 0.102 | 82.9 | 88.9 | inactive
TM2D1 (TM2 domain containing 1) | 4 | -0.456 | 88.7 | 64.6 | inactive
NECTIN2 (nectin cell adhesion molecule 2) | 1 | -0.56 | 54 | 36.6 | inactive
NECTIN2 (nectin cell adhesion molecule 2) | 2 | -0.173 | 85.6 | 75.9 | inactive
NECTIN2 (nectin cell adhesion molecule 2) | 3 | 0.107 | 78.7 | 84.8 | inactive
NECTIN2 (nectin cell adhesion molecule 2) | 4 | 0.205 | 65.4 | 75.4 | inactive
PNMT (phenylethanolamine N-methyltransferase) | 1 | -0.455 | 98.4 | 71.8 | inactive
PNMT (phenylethanolamine N-methyltransferase) | 2 | -0.137 | 58.7 | 53.3 | inactive
PNMT (phenylethanolamine N-methyltransferase) | 3 | -0.516 | 69 | 48.2 | inactive
PNMT (phenylethanolamine N-methyltransferase) | 4 | -0.26 | 93.6 | 78.2 | inactive
GNA15 (G protein subunit alpha 15) | 1 | 0.0659 | 12.9 | 13.5 | inactive
GNA15 (G protein subunit alpha 15) | 2 | 0.00656 | 90.5 | 90.9 | inactive
GNA15 (G protein subunit alpha 15) | 3 | -0.467 | 69.4 | 50.2 | inactive
F7 (coagulation factor VII) | 1 | -0.00185 | 81.2 | 81.1 | inactive
F7 (coagulation factor VII) | 2 | -0.0624 | 94.8 | 90.8 | inactive
F7 (coagulation factor VII) | 3 | -0.449 | 80.1 | 58.7 | inactive
F7 (coagulation factor VII) | 4 | -0.283 | 66.9 | 55 | inactive
CRX (cone-rod homeobox) | 1 | 1.45 | 6.45 | 17.6 | active
CRX (cone-rod homeobox) | 2 | -0.122 | 57.2 | 52.6 | active
CRX (cone-rod homeobox) | 3 | 0.963 | 1.88 | 3.65 | active
CRX (cone-rod homeobox) | 4 | 0.917 | 44.1 | 83.3 | active
ALDH1A3 (aldehyde dehydrogenase 1 family member A3) | 1 | 0 | 121 | 121 | inactive
ALDH1A3 (aldehyde dehydrogenase 1 family member A3) | 2 | -0.202 | 83.6 | 72.7 | inactive
ALDH1A3 (aldehyde dehydrogenase 1 family member A3) | 3 | 0.116 | 82.5 | 89.3 | inactive
NRP2 (neuropilin 2) | 1 | -0.0549 | 59.5 | 57.3 | inactive
NRP2 (neuropilin 2) | 2 | 0.486 | 40.1 | 56.1 | inactive
NRP2 (neuropilin 2) | 3 | -0.0648 | 80.6 | 77 | inactive
TFAP2A (transcription factor AP-2 alpha) | 1 | 0.513 | 30.6 | 43.7 | inactive
TFAP2A (transcription factor AP-2 alpha) | 2 | -0.122 | 104 | 95.4 | inactive
TFAP2A (transcription factor AP-2 alpha) | 3 | 0.0955 | 62.6 | 66.9 | inactive
EPOR (erythropoietin receptor) | 1 | -0.331 | 100 | 79.8 | inactive
EPOR (erythropoietin receptor) | 2 | 0.0921 | 92.3 | 98.4 | inactive
EPOR (erythropoietin receptor) | 3 | -0.321 | 104 | 83.4 | inactive
EPOR (erythropoietin receptor) | 4 | 0.757 | 31.3 | 52.9 | inactive
LILRB3 (leukocyte immunoglobulin like receptor B3) | 1 | -0.418 | 61.8 | 46.3 | inactive
LILRB3 (leukocyte immunoglobulin like receptor B3) | 2 | 0.00581 | 11.9 | 12 | inactive
LILRB3 (leukocyte immunoglobulin like receptor B3) | 3 | -0.14 | 117 | 106 | inactive
CTNNB1 (catenin beta 1) | 1 | 0.222 | 60.6 | 70.7 | inactive
CTNNB1 (catenin beta 1) | 2 | -0.358 | 93.7 | 73.1 | inactive
CTNNB1 (catenin beta 1) | 3 | -0.288 | 91 | 74.6 | inactive
MAN2A2 (mannosidase alpha class 2A member 2) | 1 | -0.225 | 127 | 109 | inactive
MAN2A2 (mannosidase alpha class 2A member 2) | 2 | -0.302 | 66 | 53.5 | inactive
MAN2A2 (mannosidase alpha class 2A member 2) | 3 | -0.232 | 99.9 | 85.1 | inactive

Reagents listed so far marked active (4):
Target gene | reagent no. | log2 vehicle/camptothecin viability | viability with camptothecin (% of control) | viability without drug (% of control) | Outcome
CRX (cone-rod homeobox) | 1 | 1.45 | 6.45 | 17.6 | active
CRX (cone-rod homeobox) | 2 | -0.122 | 57.2 | 52.6 | active
CRX (cone-rod homeobox) | 3 | 0.963 | 1.88 | 3.65 | active
CRX (cone-rod homeobox) | 4 | 0.917 | 44.1 | 83.3 | active

Additional records follow.
Target gene | reagent no. | log2 vehicle/camptothecin viability | viability with camptothecin (% of control) | viability without drug (% of control) | Outcome
CAMK2D (calcium/calmodulin dependent protein kinase II delta) | 1 | -0.263 | 103 | 86 | inactive
CAMK2D (calcium/calmodulin dependent protein kinase II delta) | 2 | -0.0768 | 80.3 | 76.1 | inactive
CAMK2D (calcium/calmodulin dependent protein kinase II delta) | 3 | -0.0733 | 107 | 102 | inactive
ING4 (inhibitor of growth family member 4) | 1 | -0.55 | 46.7 | 31.9 | inactive
ING4 (inhibitor of growth family member 4) | 2 | -0.312 | 108 | 86.7 | inactive
PTPN11 (protein tyrosine phosphatase non-receptor type 11) | 1 | -0.0334 | 106 | 103 | inactive
PTPN11 (protein tyrosine phosphatase non-receptor type 11) | 2 | 0.613 | 39 | 59.6 | inactive
PTPN11 (protein tyrosine phosphatase non-receptor type 11) | 3 | -0.202 | 103 | 89.9 | inactive
PTPN11 (protein tyrosine phosphatase non-receptor type 11) | 4 | -0.456 | 82.2 | 59.9 | inactive
AQP9 (aquaporin 9) | 1 | -0.14 | 93.4 | 84.8 | inactive
AQP9 (aquaporin 9) | 2 | -0.0385 | 61.1 | 59.5 | inactive
AQP9 (aquaporin 9) | 3 | -0.148 | 101 | 90.8 | inactive
AQP9 (aquaporin 9) | 4 | 0.479 | 54.2 | 75.5 | inactive
IL11 (interleukin 11) | 1 | -0.235 | 61.1 | 51.9 | inactive
IL11 (interleukin 11) | 2 | -0.302 | 76.4 | 62 | inactive
IL11 (interleukin 11) | 3 | -0.194 | 66 | 57.7 | inactive
IL11 (interleukin 11) | 4 | -0.41 | 44.5 | 33.5 | inactive
GFRA4 (GDNF family receptor alpha 4) | 1 | -0.148 | 80.6 | 72.8 | inactive
GFRA4 (GDNF family receptor alpha 4) | 2 | 0.638 | 6.02 | 9.37 | inactive
GFRA4 (GDNF family receptor alpha 4) | 3 | -0.242 | 103 | 86.8 | inactive
PIMREG (PICALM interacting mitotic regulator) | 1 | -0.243 | 91.6 | 77.4 | inactive
PIMREG (PICALM interacting mitotic regulator) | 2 | -0.456 | 101 | 73.5 | inactive
PIMREG (PICALM interacting mitotic regulator) | 3 | -0.385 | 99.6 | 76.2 | inactive
PIMREG (PICALM interacting mitotic regulator) | 4 | -0.186 | 51.5 | 45.3 | inactive
CEBPE (CCAAT enhancer binding protein epsilon) | 1 | -0.303 | 79.6 | 64.5 | inactive
CEBPE (CCAAT enhancer binding protein epsilon) | 2 | -0.507 | 64.8 | 45.6 | inactive
CEBPE (CCAAT enhancer binding protein epsilon) | 3 | -0.518 | 60.8 | 42.4 | inactive
CEBPE (CCAAT enhancer binding protein epsilon) | 4 | -0.325 | 89.5 | 71.5 | inactive
DAXX (death domain associated protein) | 1 | 0.546 | 67.1 | 98 | inactive
DAXX (death domain associated protein) | 2 | -0.146 | 108 | 97.5 | inactive
DAXX (death domain associated protein) | 3 | -0.0755 | 89.8 | 85.2 | inactive
